Data set [1] in a line: Column testing, first set of 60 day column leach trials (Example 1). As to conditions: 25 ppm; end of the 60 day leach cycle.
Data set [2] can be described thus: One stage solvent extraction circuit for about one week, then standard QC test for LIX reagents (Example 5). Conditions: 10 ppm MC1000.

As to `CCCCCCCCCC[N+](C)(C)CC(=O)[O-]` [MC1000], in data set [1], the “average increase in copper leached from the ore (in excess of the control)” value is reported as 3.7%. For the same compound, in data set [2], the “Extraction Aqueous Break” value came out at 176 s, the “Extraction Organic break” value was determined as 60 s, the “Strip Aqueous Break” value amounted to 130 s and the “Strip Organic break” value came to 96 s. In data set [2], the “delta versus Blank, Extraction Organic break” value was -9 s; the “delta versus Blank, Pre QC test Aqueous Break” value was found to be 44 s; the “delta versus Blank, Pre QC test Organic break” value stood at 79 s; the “delta versus Blank, Strip Aqueous Break” value turned out to be 1 s. The “delta versus Blank, Strip Organic break” value in data set [2] is 29 s. Besides, the “Pre QC test Aqueous Break” value in data set [2] (aqueous continuous) amounted to 104 s. In addition, the “Pre QC test Organic break” value in data set [2] (organic continuous phase break with QC electrolyte) amounted to 168 s.

The values above are taken from patent publication US10745778B2, “Leaching aids and methods of using leaching aids” (BASF SE, priority 2015, dated 2020).
